The nature of the assay: qHTS Assay to Find Inhibitors of Chronic Active B-Cell Receptor Signaling. The settings on record: ABC-DLBCL IkBa-CBG/CBR reporter, luminescence ratio (green luciferase fused to IkBa over red control in TMD8 lymphoma cells), 4 h. The gist of the method: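 Doxycycline induced both beetle luciferases in TMD8 lymphoma cells; IKK-driven degradation limits the IkappaBalpha-fused green signal, while red luminescence normalises for cell number and nonspecific effects. Compounds tested up to 46 uM, 4 hrs.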
For orientation: qHTS replaces the single test concentration by a dilution series.

[1] abbreviates: measured here: CBR red luminescence, cell number.
Setting [2] is: measured here: IkBa-CBG green luminescence.

This is one part of the list. The main result of the screen is listed elsewhere. These columns were measured beside it and carry no call. Compounds called inactive in the main read-out are mostly missing here. Words in brackets tell the shape of the fitted curve; partial curves, single points and poor fits give uncertain potencies.

On to `CC(C)C(=O)NC(c1ccco1)c1ccc2cccnc2c1O` (stereo not drawn), for which, under setting [1], the AC50 was 35.5 µM [falling, single point].

For the compound `Cc1nn(-c2ccccc2)cc1C(c1c(N)[nH]c(=S)[nH]c1=O)c1c(N)[nH]c(=S)[nH]c1=O`, under setting [1], the AC50 is 0.398 µM [rising, partial curve, poor fit].

On to `CCCC(=O)OCCNc1cc(SCCC(=O)OC)c2nonc2c1[N+](=O)[O-]`, for which the AC50 under setting [1] is 29.1 µM [falling, single point].

In the case of `CC(NC(=O)C1CCN(C(=O)Nc2ccccc2)CC1)c1ccccc1Cl` (stereo not drawn), under setting [1], the half-maximal activity concentration (AC50) is 23.1 µM [rising, single point].

Regarding `Cc1ccccc1OCC(O)Cn1c(Br)nc2c1c(=O)[nH]c(=O)n2C` (stereo not drawn), under setting [1], the AC50 was 2.82 µM [rising, single point].

For the compound `CNc1c([N+](=O)[O-])cnn1-c1ccccc1Cl`, under setting [1], the half-maximal activity concentration (AC50) was 7.94 µM [rising, partial curve, poor fit].

Regarding `COc1ccc(OCc2nnc(NC(=O)Nc3ccc(F)cc3)s2)cc1`, the AC50 under setting [1] is 15.8 µM [rising, partial curve, poor fit].

Take `CC(C)(C)C1CCC(=NNC(=S)NCc2ccccc2)CC1` (stereo not drawn): the AC50 is 12.6 µM [falling, partial curve, poor fit] under setting [1] and 35.5 µM [falling, single point] under setting [2].

Turning to `CC(C)(C)NC(=O)NC(=O)COC(=O)C1c2ccccc2Oc2ccccc21`, under setting [1], the half-maximal activity concentration (AC50) was 17.8 µM [falling, partial curve, poor fit].

As for `CN1CCN(C2CC(=O)N(c3ccc4c(c3)OCCO4)C2=O)CC1` (stereo not drawn), the concentration at half-maximal activity (AC50) under setting [1] is 16.4 µM [rising, single point].

In the case of `CNC(=O)Cn1nc(-c2ccc(C)c(S(=O)(=O)N(C)C)c2)c2ccccc2c1=O`, under setting [1], the concentration at half-maximal activity (AC50) was 18.4 µM [rising, single point].

Take `CCN1CCN(Cc2c(O)ccc3c2O/C(=C\C=C\c2ccccc2)C3=O)CC1`: under setting [1], the AC50 is 16.4 µM [falling, partial curve].

Consider `CCOc1ccc(CN(C)C(=O)CNC(=O)C2CCCCC2)cc1OC`, for which the AC50 under setting [1] is 31.6 µM [rising, single point].

As to `Cc1cccc(Cn2cccc2/C=C2/C(=N)N3C=CSC3=NC2=O)c1`, the AC50 under setting [1] was 20.6 µM [rising, single point].

For the compound `CS(=O)(=O)Nc1cccc(C2=NN(C(=O)c3ccc(F)cc3)C(c3cccs3)C2)c1` (stereo not drawn), under setting [1], the concentration at half-maximal activity (AC50) is 22.4 µM [falling, single point].

For the compound `COc1cc2c(cc1Cl)/C(=C\CCN(C)C)c1ccccc1S2`, the AC50 under setting [1] was 32.6 µM [falling, single point].

In the case of `CC(C)(C)C(=O)/C(=C\c1cccc([N+](=O)[O-])c1)n1cncn1`, the AC50 was 2.31 µM [falling, full curve] under setting [1] and 7.31 µM [rising, partial curve, poor fit] under setting [2].

Take `CCOC(=O)c1c(C)oc2c1cc(NS(=O)(=O)c1ccc(C(=O)O)cc1)c1ccccc12`: the concentration at half-maximal activity (AC50) under setting [1] is 35.5 µM [rising, single point] and the half-maximal activity concentration (AC50) under setting [2] is 35.5 µM [falling, partial curve, poor fit].

For `Cc1ccc(NC(=O)c2cccc(S(=O)(=O)N3CCCC3)c2)nc1`, under setting [1], the AC50 is 23.1 µM [falling, single point].

For the compound `O=C(NCc1nnc(SCC(=O)N2CCN(c3ccccc3)CC2)o1)c1c(F)cccc1F`, the AC50 under setting [1] was 20 µM [falling, single point].

For `O=C(c1ccc(N2CCCC2)c([N+](=O)[O-])c1)N1CCc2ccccc2C1`, the AC50 under setting [1] is 6.51 µM [rising, partial curve, poor fit].

In the case of `O=C(O)c1cccc(Cn2c(Cl)c(/C=N/Nc3ccccc3)sc2=O)c1`, the AC50 under setting [1] was 11.2 µM [falling, partial curve, poor fit].

For the compound `O=C(/C=C/c1cccs1)c1ccc(NC(=O)c2ccccc2F)cc1`, the concentration at half-maximal activity (AC50) under setting [2] is 18.4 µM [falling, partial curve, poor fit].

For the compound `Cc1nn(-c2ccccc2)c(Cl)c1/C=C1\SC(=S)NC1=O`, under setting [1], the AC50 was 16.4 µM [falling, partial curve].

Consider `Cc1ccc(S(=O)(=O)n2nc(OC(=O)C(C)(C)C)cc2N)cc1`, for which the half-maximal activity concentration (AC50) is, setting by setting: under setting [1], 15.8 µM [rising, single point]; under setting [2], 20 µM [falling, single point].

Turning to `Cc1c(C(=S)Nc2ccccc2)cnn1-c1ccccc1`, the AC50 under setting [1] was 0.562 µM [rising, full curve, poor fit].

In the case of `O=C(O)CCCCCNc1nc(-c2ccccc2)nc2ccccc12`, under setting [1], the concentration at half-maximal activity (AC50) was 22.4 µM [falling, single point].

`CCOc1ccccc1Nc1nc2ccccc2[nH]1`: under setting [1], the AC50 was 8.2 µM [falling, partial curve, poor fit].

For the compound `O=C(Nc1ccc2nc3n(c(=O)c2c1)CCCC3)c1cccc([N+](=O)[O-])c1`, the concentration at half-maximal activity (AC50) under setting [1] was 0.58 µM [rising, partial curve, poor fit].

On to `O=C(NNC(=O)c1ccc([N+](=O)[O-])o1)c1ccccc1`, for which the AC50 under setting [1] was 8.91 µM [falling, partial curve, poor fit].

For the compound `CS(=O)(=O)N1CCN(c2nc3ccccc3s2)CC1`, under setting [1], the AC50 was 1.26 µM [rising, full curve, poor fit].

For the compound `CC(=O)Nc1ccc2nc(NC(=O)c3ccco3)sc2c1`, the AC50 under setting [1] is 10 µM [falling, partial curve].

Turning to `CCC(=O)NC(c1ccccc1OC)c1ccc2cccnc2c1O` (stereo not drawn), the AC50 under setting [1] was 5.8 µM [falling, partial curve, poor fit].

As for `Oc1cccc2ccc(N3CCOCC3)nc12`, the half-maximal activity concentration (AC50) under setting [1] was 2.82 µM [rising, partial curve, poor fit].

`Cc1ccnc(NC(=O)CNC(=O)c2ccc(Br)o2)c1`: the AC50 under setting [1] was 23.1 µM [falling, partial curve].

For the compound `O=C(CSc1nc2c(sc3ccccc32)c(=O)n1-c1ccccc1)NCc1ccco1`, the concentration at half-maximal activity (AC50) under setting [1] was 29.1 µM [falling, single point].

In the case of `C/C(CCc1ccc2c(c1)OCO2)=N\N=C(/N)SC1CC(=O)N(c2ccc(Cl)cc2)C1=O` (stereo not drawn), the half-maximal activity concentration (AC50) under setting [1] is 3.16 µM [falling, full curve, poor fit].

For `COC(=O)c1ccsc1NC(=O)CSc1nnnn1-c1ccccc1SC`, under setting [1], the AC50 was 0.058 µM [falling, full curve, poor fit].

`CCOc1ccc(-c2noc(CCCC(=O)NC3CCCC3)n2)cc1OC`: under setting [1], the half-maximal activity concentration (AC50) is 14.1 µM [falling, partial curve, poor fit].

One may read the AC50 as the concentration giving half of the maximal activity seen.

These data come from PubChem BioAssay AID493014 (National Center for Advancing Translational Sciences (NCATS), 2011).
